{"source": "PubChem BioAssay AID1224826 (NIAID, 2016)", "test": "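Knock-downs that raise or lower Tnf reporter signal after endotoxin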 (primary screen)", "cell system": "RAW264.7 G9 macrophages from mouse bearing reporters for p65 (GFP) and the Tnf promoter (mCherry)", "knock-down reagent": "siRNA pool against mouse genes, 100 nM", "duration": "16 h of LPS stimulation, after 2 days of siRNA transfection", "conditions": "bacterial lipopolysaccharide (Salmonella minnesota R595), 10 ng/ml", "detection": "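Imaged Tnf reporter mCherry in nuclei, minus background, normalised per plate to the median and expressed as robust z-scores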", "scale": "Tnf reporter robust z-score: higher = stronger Tnf promoter reporter signal after LPS", "rule for the call": "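Called active when robust z-score is at most -1.3, matching the median of the Tlr4 knock-down control, or over 3; control wells and wells with under 50 cells never active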", "calls": "active = Tnf reporter clearly lowered or raised; inactive = no clear change in Tnf reporter", "note": "In all, the deposit lists about 17,000 reagents; below is a random part of them. About 1,110 of all reagents (6.6%) count as active. 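Active means lowered or raised reporter signal; replicate intensities are raw and not normalised per plate.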 Further read-outs or replicates are left out here."}
{"target gene": "Sgsm2", "Tnf reporter robust z-score": -1.45, "fewer than 50 cells in well": "enough cells in well", "outcome": "active"}
{"target gene": "Vps45", "Tnf reporter robust z-score": -0.71, "fewer than 50 cells in well": "enough cells in well", "outcome": "inactive"}
{"target gene": "Ptges2", "Tnf reporter robust z-score": 0.94, "fewer than 50 cells in well": "enough cells in well", "outcome": "inactive"}
{"target gene": "Ildr1", "Tnf reporter robust z-score": 3.2, "fewer than 50 cells in well": "enough cells in well", "outcome": "active"}
{"target gene": "Unc45b", "Tnf reporter robust z-score": -1.2, "fewer than 50 cells in well": "enough cells in well", "outcome": "inactive"}
{"target gene": "2310030G06Rik", "fewer than 50 cells in well": "fewer than 50 cells per well; well left out of calls", "outcome": "inactive"}
{"target gene": "Rfk", "Tnf reporter robust z-score": -1.29, "fewer than 50 cells in well": "enough cells in well", "outcome": "inactive"}
{"target gene": "Ppm1n", "Tnf reporter robust z-score": 1.79, "fewer than 50 cells in well": "enough cells in well", "outcome": "inactive"}

The list goes on (2 carried over from the part before).
{"target gene": "Rfk", "Tnf reporter robust z-score": -1.29, "fewer than 50 cells in well": "enough cells in well", "outcome": "inactive"}
{"target gene": "Ppm1n", "Tnf reporter robust z-score": 1.79, "fewer than 50 cells in well": "enough cells in well", "outcome": "inactive"}
{"target gene": "Or5p54", "fewer than 50 cells in well": "fewer than 50 cells per well; well left out of calls", "outcome": "inactive"}
{"target gene": "Tbc1d17", "fewer than 50 cells in well": "fewer than 50 cells per well; well left out of calls", "outcome": "inactive"}
{"target gene": "Hoxa2", "Tnf reporter robust z-score": -1.29, "fewer than 50 cells in well": "enough cells in well", "outcome": "inactive"}
{"target gene": "Mrps18b", "Tnf reporter robust z-score": -0.17, "fewer than 50 cells in well": "enough cells in well", "outcome": "inactive"}
{"target gene": "Nrg4", "Tnf reporter robust z-score": -1.22, "fewer than 50 cells in well": "enough cells in well", "outcome": "inactive"}
{"target gene": "Tmem138", "fewer than 50 cells in well": "fewer than 50 cells per well; well left out of calls", "outcome": "inactive"}
